Measurements as given in US20080207488A1, “Method for Detecting Peptides Comprising a Cross-B Structure” (priority 2005, published 2008).
No constants are given. Whether binding was seen depends on the method and setting. Some results given as binding are weak or reduced against the parent protein; the word gives no strength. Sequences can lack the tags named with a protein.

Protein sequences, listed by entry. Tags and fused reporters are not part of them. Residues count along the entry.
UniProt P01012, residues 2-386: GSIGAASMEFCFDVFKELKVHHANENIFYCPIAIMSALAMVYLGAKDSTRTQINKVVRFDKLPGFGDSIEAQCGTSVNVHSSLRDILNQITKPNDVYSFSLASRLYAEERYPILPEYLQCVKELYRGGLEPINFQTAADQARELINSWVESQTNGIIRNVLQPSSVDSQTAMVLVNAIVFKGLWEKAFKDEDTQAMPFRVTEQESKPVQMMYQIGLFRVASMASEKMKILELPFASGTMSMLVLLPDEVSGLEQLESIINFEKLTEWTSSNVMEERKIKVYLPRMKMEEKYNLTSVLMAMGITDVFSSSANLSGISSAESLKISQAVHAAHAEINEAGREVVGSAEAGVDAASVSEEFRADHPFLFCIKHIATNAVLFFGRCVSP

How the values were obtained:
[1] = target: heat-denatured misfolded ovalbumin (chicken) (UniProt P01012); assay: ELISA, coated protein, tPA F-EGF dilution series
[2] = target: ovalbumin, freshly dissolved (native OVA) (chicken) (UniProt P01012); assay: ELISA, coated protein, tPA F-EGF dilution series

B1: human tissue-type plasminogen activator finger EGF (tPA F-EGF) fragment with carboxy-terminal FLAG-tag-His-tag (protein, UniProt P00750 36-120, looked up, not shown: small tags and cut ends)
chain: SYQVICRDEKTQMIYQQHQSWLRPVLRSNRVEYCWCNSGRAQCHSVPVKSCSEPRCFNGGTCQQALYFSDFVCQCPEGFAGKCCE
In the case of B1, the binding [1] is reported as “binds” and the binding [2] is reported as “binds”.
